Assay results as given in article PMC10250352.
Results are given in words; binding and its absence hold for the method and conditions named. Binding seen in cells or lysates may run through a third protein. A yes stands for co-enrichment or nearness to the bait. Other partners may have been found. No binding means not detected with the bait.

Target: BRD-8^V5 (BRD-8 C-terminally tagged with V5) (Neurospora crassa) (UniProt Q7SC01)
Assay: affinity purification with mass spectrometry; BRD-8^V5 isolated from 5 g of Neurospora tissue grown in the light by a single step on V5 antibody-conjugated Dynabeads; single bands or the whole gel lane analysed by MS/MS; untagged strain 328-4 as negative control

- binding: no binding
B1: BDP-3 (the Neurospora ortholog of human BRD4) (protein, UniProt V5IPQ4 1-1102)
chain: MAVMTSQQADGGAALPEKPVTMATEAPTAAPDAPVADAPKSDAPAADAATADATGDAAPTPDAPVKDVADGDHQKETEVNGHDDAVSPKTLVPETKTDSLPTPKDEPSLEEAQTTPAKKEEDAPKAEESKEGERKSDEQAQKEDAKPAPVEEEKKAEEPAKEEEGPKDEGDKMEIDAPEVPAGDAQKEPVASPGEDKVPEPAAEEKPKEEEKPAAAEEAKEDKPAEPKADVATEAKSEAKSDDGPAAKEKEEAAAPAATETPATEPASKPPASPAKQQEDVEMADAPATVEEPAKSEQAKPAEATPTATQQETQDTAVSDVPPPTPAEDEKKDKESPQPSPAAPVAPVTADTSMSDAPPPSSKPYREREEDSEDEPVAKRAKVSPVADQASAKNEAKREDKMDVDSKPAASSASTSVHDRSEPKSLADDSINHLPISDYMNRQIRQVLAGVKKTKAGYHFRLPVSELWPGLWNEYSAKVKDPTDIQTMEKRLRGNLAKYHTLGDFKRDLEKLVQNSIAFNGEYHDVTAAARSCRDTILARLGGCPAFEPSRPEKKDFAKQHPTRHAEPRAASHLSSPSAPLPQRPQQPRVNTAAVPAPSSSKSIESPAFAIPANNNGMPLIRRDSTKPDSRAKRPVKPTHSKDLVYDTKRKKKLIPELRFCEEVLTELRKQRYYEFNEAFQKPVDPVALNIPTYHKIIKKPMDLSTMQSKLNAGDYASAKEFERDFDLIIKNCRLFNGEQHIVYEQALRLQSLYRREMSKKDEWLAKHAPAPAPHLSSNTSPRLKDESDWEEPESEGEPEVDEELKGAQQRLASYMKRLEEEQKKINDIMLEMNPNMADVEIAQSVVAMLQKQIITERSKIASMQPTKKAAPAKSHHANKPSVSKPKKAMPAGGSSHHAGGHVAKKASVSHSSMGGHGGGMGGMPKKAAARKPAPKRKMGTVEKEVIAAGIAELEGAQLERAIEIIKSDTGTGENDSGELELDIDQLSQEALTQLYDLAIKAFPHLQREKERTMAAQAPAPPPAAQRSKPVQKTKKNKPMSKMEQERRLQQLNELRAQAGRQGSGSQEPLESIEGTGRTSAEPAPQHHREEDSEDEESSEEE
